Data source: PubChem BioAssay AID743121 (NCATS, 2013)

Purpose: 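Knock-downs that sensitise breast cancer cells to camptothecin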 (primary screen)
Cell system: MDA-MB-231 cells, a human breast cancer line
Reagent: single siRNA against human genes, 20 nM siRNA (0.8 pmol per well)
Duration: 120 h (drug added 48 h after transfection, read 72 h later)
Challenge: camptothecin 20 nM (about EC30) for 72 h; vehicle 0.1% DMSO in parallel plates
Measurement: 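Cell viability by ATP luminescence (CellTiter-Glo) as % of non-targeting siRNA wells, and the log2 ratio of viability without drug over viability with camptothecin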
Scale: log2 vehicle/camptothecin viability: higher = stronger sensitisation to camptothecin; viability with camptothecin and viability without drug: higher = more viable cells
Hit rule: 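Each gene scored by redundant siRNA activity (RSA) over its individual siRNA ratios; a gene is called active at p < 0.001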
The deposit covers about 26,000 reagents; this is a part drawn at random. Of all reagents, 167 (0.63%) are marked active. 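Calls are per gene from RSA p-values that are not deposited; an individual active-marked siRNA can sensitise only weakly.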 Entries without a mark were called inactive. Reagents against one gene are numbered here.

| Gene | reagent | log2 vehicle/camptothecin viability | viability with camptothecin (% of control) | viability without drug (% of control) |
| --- | --- | --- | --- | --- |
| GRK3 | 1 | -0.213 | 72.9 | 62.9 |
| GRK3 | 2 | 1.42 | 24.1 | 64.6 |
| GRK3 | 3 | 0.0119 | 92.2 | 92.9 |
| GRK3 | 4 | 0.157 | 84.8 | 94.5 |
| CCKAR | 1 | -0.0617 | 24.9 | 23.8 |
| CCKAR | 2 | -0.126 | 52.4 | 48 |
| CCKAR | 3 | 0.261 | 30.6 | 36.6 |
| CCKAR | 4 | -0.256 | 108 | 90.3 |
| ASB10 | 1 | -0.23 | 53.9 | 45.9 |
| ASB10 | 2 | 0.0982 | 30.6 | 32.7 |
| ASB10 | 3 | -0.0996 | 26.7 | 24.9 |
| ASB10 | 4 | -0.294 | 106 | 86.5 |
| PPM1D | 1 | -0.292 | 56.6 | 46.2 |
| PPM1D | 2 | -0.117 | 70.3 | 64.8 |
| PPM1D | 3 | -0.424 | 86.4 | 64.4 |
| PPM1D | 4 | -0.0933 | 80.4 | 75.3 |
| GZMM | 1 | -0.0354 | 92.7 | 90.4 |
| GZMM | 2 | -0.149 | 42 | 37.9 |
| GZMM | 3 | -0.466 | 17.9 | 13 |
| PPP1R3D | 1 | 0.869 | 48.4 | 88.3 |
| PPP1R3D | 2 | -0.152 | 91.3 | 82.2 |
| PPP1R3D | 3 | -0.785 | 69 | 40 |
| PPP1R3D | 4 | -0.291 | 101 | 82.6 |
| ASIC5 | 1 | 0.0922 | 86 | 91.7 |
| ASIC5 | 2 | 0.0464 | 77.1 | 79.7 |
| ASIC5 | 3 | -0.123 | 116 | 107 |
| ASIC5 | 4 | -0.184 | 100 | 88.4 |
| NPTN | 1 | 0.602 | 34.8 | 52.8 |
| NPTN | 2 | -0.311 | 98.6 | 79.5 |
| NPTN | 3 | 0.186 | 53.4 | 60.8 |
| PLEKHO2 | 1 | -0.0546 | 103 | 99.2 |
| PLEKHO2 | 2 | -0.134 | 99.7 | 90.8 |
| PLEKHO2 | 3 | 0.19 | 59.2 | 67.6 |
| PLEKHO2 | 4 | -0.221 | 61.7 | 53 |
| CACNA2D2 | 1 | 0.374 | 56.3 | 73 |
| CACNA2D2 | 2 | -0.549 | 81.3 | 55.6 |
| CACNA2D2 | 3 | -0.0152 | 89.8 | 88.8 |
| CACNA2D2 | 4 | -0.137 | 84.8 | 77.1 |
| PKIG | 1 | -0.228 | 40.8 | 34.8 |
| PKIG | 2 | -0.332 | 54.9 | 43.6 |
| PKIG | 3 | -0.299 | 97.5 | 79.2 |
| PKIG | 4 | -0.309 | 80.2 | 64.8 |
| RIPK2 | 1 | -0.0932 | 90.6 | 84.9 |
| RIPK2 | 2 | 0.284 | 42.3 | 51.5 |
| RIPK2 | 3 | 0.105 | 92.1 | 99.1 |
| RIPK2 | 4 | -0.0202 | 59.8 | 59 |
